Not every entry of the source has a single result; some have several. The other results are left out here. An entry can have further records. Values that stand side by side seem to repeat one measurement on other runs, samples or individuals.
Test system: NHE-3
Experiment: NHE-3 inhibitory effect in PS120 cell line expressing NHE-3

Row | SMILES | NHE-3 inhibitory effect, Inhibition at 30 μM (PS120 cells expressing NHE-3, tested form: methanesulfonate, methanesulfonate) | NHE-3 inhibitory effect, Inhibition at 30 μM (PS120 cells expressing NHE-3)
1 | CS(=O)(=O)O.N=C(N)NC(=O)c1ccc(-c2ccccc2)o1 [Example 4, [5-phenylfuran-2-ylcarbonyl]guanidine methanesulfonate] | no NHE-3 inhibitory effect at all and 0% | 
2 | N=C(N)NC(=O)c1ccc(-c2cccc(Cl)c2)o1 [Example 6, [5-(3-chlorophenyl)furan-2-ylcarbonyl]guanidine] |  | no NHE-3 inhibitory effect at all and 0%

Reference: US7351843B2, “Furancarbonylguanidine derivatives, their preparation and pharmaceutical compositions containing them” (Korea Research Institute of Chemical Technology, priority 2003, dated 2008)
